Assay results taken from patent US7250439B2, “Matrix metalloproteinase inhibitors” (Glaxo Group Limited, priority 2003, dated 2007).
Some entries share one result that the patent states for a list of compounds.

By UniProt entry, the sequences of proteins in these tests, tags left out. Residues count along the entry.
UniProt P39900, 106-268: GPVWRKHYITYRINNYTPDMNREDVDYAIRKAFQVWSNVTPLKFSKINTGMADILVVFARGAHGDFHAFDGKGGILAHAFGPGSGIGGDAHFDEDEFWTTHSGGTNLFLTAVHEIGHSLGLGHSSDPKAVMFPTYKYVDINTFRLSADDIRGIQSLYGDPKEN

Target: T1, MMP12 catalytic domain (residues 106–268) (Homo sapiens, UniProt P39900)
T1 construct: MMP12 catalytic domain (residues 106–268) protein was expressed in E. coli; made in house; host or cells: E. coli
Assay: MMP-12 fluorescent peptide substrate assay
Assay type: biochemical
Settings: FAM/TAMRA peptide substrate 2 uM, 20 nM enzyme, 0.001–100 uM inhibitor, pH 7.5, 120 min ambient temperature

IC50, < 100 µM:
CC(C(=O)O)C(O)CCc1ccc(-c2ccccc2)cc1 (mixture of isomers) [Example 7, 5-Biphenyl-4-yl-3-hydroxy-2-methyl-pentanoic acid]
O=C(O)C(Cc1ccccc1)C(O)CCc1ccc(-c2ccccc2)cc1 (mixture of isomers) [Example 8, 2-Benzyl-5-biphenyl-4-yl-3-hydroxy-pentanoic acid]
O=C(O)C(CCc1ccccc1)C(O)CCc1ccc(-c2ccccc2)cc1 (mixture of isomers) [Example 9, 5-Biphenyl-4-yl-3-hydroxy-2-phenethyl-pentanoic acid]
O=C(O)C(CCCc1ccccc1)C(O)CCc1ccc(-c2ccccc2)cc1 (mixture of isomers) [Example 10, 5-Biphenyl-4-yl-3-hydroxy-2-(3-phenyl-propyl)-pentanoic acid]
O=C(CC(O)CCc1ccc(-c2ccccc2)cc1)N1CCSC1 (centres unmarked) [Example 6, 5-Biphenyl-4-yl-3-hydroxy-1-thiazolidin-3-yl-pentan-1-one]
O=C(O)CC(O)CCc1ccc(-c2cccc([N+](=O)[O-])c2)cc1 (centres unmarked) [Example 13, 3-Hydroxy-5-(3′-nitro-biphenyl-4-yl)-pentanoic acid]
Cc1ccc(-c2ccc(CCC(O)CC(=O)O)cc2)cc1 (centres unmarked) [Example 14, 3-Hydroxy-5-(4′-methyl-biphenyl-4-yl)-pentanoic acid]
O=C(O)CC(O)CCc1ccc(-c2ccc(CO)cc2)cc1 (centres unmarked) [Example 15, 3-Hydroxy-5-(4′-hydroxymethyl-biphenyl-4-yl)-pentanoic acid]
Cc1cccc(-c2ccc(CCC(O)CC(=O)O)cc2)c1 (centres unmarked) [Example 16, 3-Hydroxy-5-(3′-methyl-biphenyl-4-yl)-pentanoic acid]
O=C(O)CC(O)CCc1ccc(-c2cccc(O)c2)cc1 (centres unmarked) [Example 17, 3-Hydroxy-5-(3′-hydroxy-biphenyl-4-yl)-pentanoic acid]
CC(=O)Nc1cccc(-c2ccc(CCC(O)CC(=O)O)cc2)c1 (centres unmarked) [Example 19, 5-(3′-Acetylamino-biphenyl-4-yl)-3-hydroxy-pentanoic acid]
O=C(O)CC(O)CCc1ccc(-c2cccc(F)c2)cc1 (centres unmarked) [Example 20, 5-(3′-Fluoro-biphenyl-4-yl)-3-hydroxy-pentanoic acid]
CSc1ccc(-c2ccc(CCC(O)CC(=O)O)cc2)cc1 (centres unmarked) [Example 21, 3-Hydroxy-5-(4′-methylsulfanyl-biphenyl-4-yl)-pentanoic acid]
CCc1ccc(-c2ccc(CCC(O)CC(=O)O)cc2)cc1 (centres unmarked) [Example 22, 5-(4′-Ethyl-biphenyl-4-yl)-3-hydroxy-pentanoic acid]
CCOc1ccc(-c2ccc(CCC(O)CC(=O)O)cc2)cc1 (centres unmarked) [Example 23, 5-(4′-Ethoxy-biphenyl-4-yl)-3-hydroxy-pentanoic acid]
N#Cc1ccc(-c2ccc(CCC(O)CC(=O)O)cc2)cc1 (centres unmarked) [Example 24, 5-(4′-Cyano-biphenyl-4-yl)-3-hydroxy-pentanoic acid]
N#Cc1cccc(-c2ccc(CCC(O)CC(=O)O)cc2)c1 (centres unmarked) [Example 25, 5-(3′-Cyano-biphenyl-4-yl)-3-hydroxy-pentanoic acid]
O=C(O)CC(O)CCc1ccc(-c2ccc(F)cc2)cc1 (centres unmarked) [Example 26, 5-(4′-Fluoro-biphenyl-4-yl)-3-hydroxy-pentanoic acid]
O=C(O)CC(O)CCc1ccc(-c2ccc(Oc3ccccc3)cc2)cc1 (centres unmarked) [Example 27, 3-Hydroxy-5-(4′-phenoxy-biphenyl-4-yl)-pentanoic acid]
COc1ccc(-c2ccc(CCC(O)CC(=O)O)cc2)cc1 (centres unmarked) [Example 28, 3-Hydroxy-5-(4′-methoxy-biphenyl-4-yl)-pentanoic acid]
